Assay results reported in the supplement of paper PMC4604168 (melanoma cell lines).
The other results are listed elsewhere or left out. Many values rest on one well or one pass, so single values are uncertain.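 Imaging used 1,536-well plates; nuclei positive for cleaved PARP by antibody were divided by total DNA-stained nuclei to yield the apoptosis fraction. Doses for screening kept most cells viable, and cell lines differ markedly in resting and induced cleaved-PARP levels.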

The molecules below were run on WM115 (assay: cleaved PARP positive nuclei fraction relative to DMSO control; melanoma cells; higher = more apoptosis). Details: library dose: low library concentration; 72 h.

SMILES | cleaved PARP positive nuclei fraction [%]
Cn1c(Nc2ccc(C(F)(F)F)cc2)nc2cc(Oc3ccnc(-c4ncc(C(F)(F)F)[nH]4)c3)ccc21 + Nc1cccc2c1CN(C1CCC(=O)NC1=O)C2=O [lenalidomide] (first compound 0.08 µM, partner dose 1 µM) | 516
Clc1ccc(Nc2nnc(Cc3ccncc3)c3ccccc23)cc1 [vatalanib] + Cc1nc(Nc2ncc(C(=O)Nc3c(C)cccc3Cl)s2)cc(N2CCN(CCO)CC2)n1 [dasatanib] (first compound 2 µM, partner dose 0.004 µM) | 140
OCc1c[nH]c2ccccc12 [Indole-3-carbinol] + O=S(=O)(c1ccccc1)N(CC(F)(F)F)c1ccc(C(O)(C(F)(F)F)C(F)(F)F)cc1 [T0901317] (first compound 0.8 µM, partner dose 1.4 µM) | 41.3
C=CCNC1=C2C[C@@H](C)C[C@H](OC)[C@H](O)[C@@H](C)/C=C(\C)[C@H](OC(N)=O)[C@@H](OC)/C=C\C=C(/C)C(=O)NC(=CC1=O)C2=O [Tanespimycin] + Nc1cccc2c1CN(C1CCC(=O)NC1=O)C2=O [lenalidomide] (first compound 0.002 µM, partner dose 1 µM) | 60
C=CCNC1=C2C[C@@H](C)C[C@H](OC)[C@H](O)[C@@H](C)/C=C(\C)[C@H](OC(N)=O)[C@@H](OC)/C=C\C=C(/C)C(=O)NC(=CC1=O)C2=O [Tanespimycin] + OCc1c[nH]c2ccccc12 [Indole-3-carbinol] (first compound 0.002 µM, partner dose 0.8 µM) | 98.3
C=CCNC1=C2C[C@@H](C)C[C@H](OC)[C@H](O)[C@@H](C)/C=C(\C)[C@H](OC(N)=O)[C@@H](OC)/C=C\C=C(/C)C(=O)NC(=CC1=O)C2=O [Tanespimycin] + CC(=O)c1c(C)c2cnc(Nc3ccc(N4CCNCC4)cn3)nc2n(C2CCCC2)c1=O [palbociclib] (first compound 0.002 µM, partner dose 0.04 µM) | 55.8
C#Cc1cccc(Nc2ncnc3cc(OCCOC)c(OCCOC)cc23)c1 [erlotinib] + Cn1c(Nc2ccc(C(F)(F)F)cc2)nc2cc(Oc3ccnc(-c4ncc(C(F)(F)F)[nH]4)c3)ccc21 [CHIR265] (first compound 0.8 µM, partner dose 0.08 µM) | 254
C#Cc1cccc(Nc2ncnc3cc(OCCOC)c(OCCOC)cc23)c1 [erlotinib] + Cn1nnc2c(C(N)=O)ncn2c1=O [temozolomide] (first compound 0.8 µM, partner dose 2 µM) | 105
Cn1c(Nc2ccc(C(F)(F)F)cc2)nc2cc(Oc3ccnc(-c4ncc(C(F)(F)F)[nH]4)c3)ccc21 + COCC[n+]1c2c(n(Cc3cnccn3)c1C)C(=O)c1ccccc1C2=O [YM155] (first compound 0.08 µM, partner dose 0.0004 µM) | 261
Clc1ccc(Nc2nnc(Cc3ccncc3)c3ccccc23)cc1 [vatalanib] + C#Cc1cccc(Nc2ncnc3cc(OCCOC)c(OCCOC)cc23)c1 [erlotinib] (first compound 2 µM, partner dose 0.8 µM) | 188
C=CCNC1=C2C[C@@H](C)C[C@H](OC)[C@H](O)[C@@H](C)/C=C(\C)[C@H](OC(N)=O)[C@@H](OC)/C=C\C=C(/C)C(=O)NC(=CC1=O)C2=O [Tanespimycin] + CC(C)CCN1c2nc(Nc3cc(F)c(O)c(F)c3)ncc2N(C)C(=O)C1C [BID1870] (first compound 0.002 µM, partner dose 0.2 µM) | 133

These molecules were tested on WM1716 in the same assay as above. Details: library dose: low library concentration; 72 h.

SMILES | cleaved PARP positive nuclei fraction [%]
CC(=O)c1c(C)c2cnc(Nc3ccc(N4CCNCC4)cn3)nc2n(C2CCCC2)c1=O [palbociclib] + Nc1cccc2c1CN(C1CCC(=O)NC1=O)C2=O [lenalidomide] (first compound 0.04 µM, partner dose 1 µM) | 48.3
CC(=O)c1c(C)c2cnc(Nc3ccc(N4CCNCC4)cn3)nc2n(C2CCCC2)c1=O [palbociclib] + COc1ccc(Cl)c(Nc2nc3ccccc3nc2NS(=O)(=O)c2cccc(NC(=O)C(C)(C)N)c2)c1 [XL147] (first compound 0.04 µM, partner dose 0.8 µM) | 102
CC(=O)c1c(C)c2cnc(Nc3ccc(N4CCNCC4)cn3)nc2n(C2CCCC2)c1=O [palbociclib] + Cc1nc(Nc2ncc(C(=O)Nc3c(C)cccc3Cl)s2)cc(N2CCN(CCO)CC2)n1 [dasatanib] (first compound 0.04 µM, partner dose 0.004 µM) | 156
C=CCNC1=C2C[C@@H](C)C[C@H](OC)[C@H](O)[C@@H](C)/C=C(\C)[C@H](OC(N)=O)[C@@H](OC)/C=C\C=C(/C)C(=O)NC(=CC1=O)C2=O [Tanespimycin] + COc1ccc(Cl)c(Nc2nc3ccccc3nc2NS(=O)(=O)c2cccc(NC(=O)C(C)(C)N)c2)c1 [XL147] (first compound 0.002 µM, partner dose 0.8 µM) | 114
OCc1c[nH]c2ccccc12 [Indole-3-carbinol] + C#Cc1cccc(Nc2ncnc3cc(OCCOC)c(OCCOC)cc23)c1 [erlotinib] (first compound 0.8 µM, partner dose 0.8 µM) | 40.4
CC(=O)c1c(C)c2cnc(Nc3ccc(N4CCNCC4)cn3)nc2n(C2CCCC2)c1=O [palbociclib] + C[C@]1(c2nc3c(C(N)=O)cccc3[nH]2)CCCN1 [Veliparib] (first compound 0.04 µM, partner dose 1.4 µM) | 111
C=CCNC1=C2C[C@@H](C)C[C@H](OC)[C@H](O)[C@@H](C)/C=C(\C)[C@H](OC(N)=O)[C@@H](OC)/C=C\C=C(/C)C(=O)NC(=CC1=O)C2=O [Tanespimycin] + C#Cc1cccc(Nc2ncnc3cc(OCCOC)c(OCCOC)cc23)c1 [erlotinib] (first compound 0.002 µM, partner dose 0.8 µM) | 134
C=CCNC1=C2C[C@@H](C)C[C@H](OC)[C@H](O)[C@@H](C)/C=C(\C)[C@H](OC(N)=O)[C@@H](OC)/C=C\C=C(/C)C(=O)NC(=CC1=O)C2=O [Tanespimycin] + Clc1ccc(Nc2nnc(Cc3ccncc3)c3ccccc23)cc1 [vatalanib] (first compound 0.002 µM, partner dose 2 µM) | 70.1
COCC[n+]1c2c(n(Cc3cnccn3)c1C)C(=O)c1ccccc1C2=O + Nc1cccc2c1CN(C1CCC(=O)NC1=O)C2=O [lenalidomide] (first compound 0.0004 µM, partner dose 1 µM) | 80
C#Cc1cccc(Nc2ncnc3cc(OCCOC)c(OCCOC)cc23)c1 [erlotinib] + C[C@]1(c2nc3c(C(N)=O)cccc3[nH]2)CCCN1 [Veliparib] (first compound 0.8 µM, partner dose 1.4 µM) | 24.2
CC(=O)c1c(C)c2cnc(Nc3ccc(N4CCNCC4)cn3)nc2n(C2CCCC2)c1=O [palbociclib] + C#Cc1cccc(Nc2ncnc3cc(OCCOC)c(OCCOC)cc23)c1 [erlotinib] (first compound 0.04 µM, partner dose 0.8 µM) | 276
Nc1cccc2c1CN(C1CCC(=O)NC1=O)C2=O (stereo not given) [lenalidomide] + COc1cc(Nc2ncc(F)c(Nc3ccc4c(n3)NC(=O)C(C)(C)O4)n2)cc(OC)c1OC [Tamatinib] (first compound 1 µM, partner dose 0.4 µM) | 62
C[C@]1(c2nc3c(C(N)=O)cccc3[nH]2)CCCN1 [Veliparib] + CC(C)(C)c1cnc(CSc2cnc(NC(=O)C3CCNCC3)s2)o1 [SNS-032] (first compound 1.4 µM, partner dose 0.01 µM) | 88.8
Cc1nc(Nc2ncc(C(=O)Nc3c(C)cccc3Cl)s2)cc(N2CCN(CCO)CC2)n1 [dasatanib] + Nc1cccc2c1CN(C1CCC(=O)NC1=O)C2=O [lenalidomide] (first compound 0.004 µM, partner dose 1 µM) | 181
CC(=O)c1c(C)c2cnc(Nc3ccc(N4CCNCC4)cn3)nc2n(C2CCCC2)c1=O [palbociclib] + OCc1c[nH]c2ccccc12 [Indole-3-carbinol] (first compound 0.04 µM, partner dose 0.8 µM) | 54.4
Clc1ccc(Nc2nnc(Cc3ccncc3)c3ccccc23)cc1 [vatalanib] + COCC[n+]1c2c(n(Cc3cnccn3)c1C)C(=O)c1ccccc1C2=O [YM155] (first compound 2 µM, partner dose 0.0004 µM) | 123
CC1(C)NC(=O)N(c2ccc([N+](=O)[O-])c(C(F)(F)F)c2)C1=O [nilutamide] + O=C(Nc1cccc(Cl)c1)Nc1ncc(CCNc2ncnc3ccsc23)s1 [SNS314] (first compound 1 µM, partner dose 0.0008 µM) | 186
Nc1cccc2c1CN(C1CCC(=O)NC1=O)C2=O (stereo not given) [lenalidomide] + C[C@]1(c2nc3c(C(N)=O)cccc3[nH]2)CCCN1 [Veliparib] (first compound 1 µM, partner dose 1.4 µM) | 50.5
OCc1c[nH]c2ccccc12 [Indole-3-carbinol] + COc1ccc(Cl)c(Nc2nc3ccccc3nc2NS(=O)(=O)c2cccc(NC(=O)C(C)(C)N)c2)c1 [XL147] (first compound 0.8 µM, partner dose 0.8 µM) | 76.2

A section of the results above:
SMILES | cleaved PARP positive nuclei fraction [%]
CC(=O)c1c(C)c2cnc(Nc3ccc(N4CCNCC4)cn3)nc2n(C2CCCC2)c1=O [palbociclib] + Nc1cccc2c1CN(C1CCC(=O)NC1=O)C2=O [lenalidomide] (first compound 0.04 µM, partner dose 1 µM) | 48.3
CC(=O)c1c(C)c2cnc(Nc3ccc(N4CCNCC4)cn3)nc2n(C2CCCC2)c1=O [palbociclib] + COc1ccc(Cl)c(Nc2nc3ccccc3nc2NS(=O)(=O)c2cccc(NC(=O)C(C)(C)N)c2)c1 [XL147] (first compound 0.04 µM, partner dose 0.8 µM) | 102
